The source of these data is patent US20250057859A1, “CANNABICHROMENEQUINONE AND ANALOGUES THEREOF, AND METHOD OF USING COMPOSITIONS THEREOF AS ANTI-INFLAMMATORY AGENTS” (Juva Life, Inc., priority 2021, published 2025).

Structures are written as SMILES. pIC50: −log10 of the molar value.

The assay has as its system PANC-1 pancreatic carcinoma cell line. Description: PANC-1 cell line toxicity (Cell titer Glo viability). The settings on record: Homo sapiens, PANC-1, 72 h, read-out: IC50 cell viability. As for the experimental part:
The half maximal inhibition concentration (IC50) for each compound was determined by harvesting cells during the logarithmic growth period and then counting cell number using hemocytometer. The cell concentrations were adjusted to 5×10^4 cells/mL with respective culture medium. 30 μL of cell suspensions were added to three 384-well plates with the final cell density of 1.5×10^3 cells/well. Then, using a Biomek FX, test articles were serially diluted (10 mM top, 3× dilution intervals) along with a reference inhibitor (1 mM top, 3× dilution intervals) in acoustic grade Labcyte plate. Then, using an acoustic dispenser (Labcyte550), compounds were added as serially diluted to plate with cells: 90 nL of serially diluted compounds per well. 90 nL DMSO is added to control wells. Test plates were incubated for 72 h in the humidified incubator at 37° C. with 5% CO2. 25 μL of reconstituted Cell titer Glo reagent was added to each well. Each test plate was then incubated for 20 min at room temperature. Luminescence was then recorded using Synergy Neo2Multi-mode Reader.
In order to calculate intersect IC50, a dose-response curve was fitted using nonlinear regression model with a sigmoidal dose response.
The formula for calculating surviving rate is shown below, and the intersect IC50 was calculated according to the dose-response curve generated by the software: […]
Background: In ATP-based viability assays light output follows the ATP content of the culture.

In general, pIC50 refers to −log10 of the IC50, conventionally taken in molar units. With `CN[C@@H]1C[C@H]2O[C@@](C)([C@@H]1OC)n1c3ccccc3c3c4c(c5c6ccccc6n2c5c31)C(=O)NC4` [Staurosporine, staurosporine, reference compound], the pIC50 is approximately 7.10.
